Source: US8299262B2, “Pyridylmethyl-sulfonamide compounds” (BASF SE, priority 2007, dated 2012)
Some entries share one result that the patent states for a list of compounds.

Columns and labels:
Type in all cases: cell-based
[1] = tested on: Corynespora cassiicola; experiment: Microtiter test, Corynespora cassiicola (Use Example 6); details: 125 ppm; control =100%, day 7
[2] = tested on: Cercospora sojina; experiment: Microtiter test, Cercospora sojina (Use Example 11); details: 125 ppm; control =100%, day 7
[3] = tested on: Ustilago maydis; experiment: Microtiter test, Ustilago maydis (Use Example 5); details: 125 ppm; control =100%, day 7
[4] = tested on: Scerotinia sclerotinum; experiment: Microtiter test, Scerotinia sclerotinum (Use Example 8); details: 125 ppm; control =100%, day 7
[5] = tested on: Mycosphaerella fijiensis (Benzimidazole-Sensitive Isolate); experiment: Microtiter test, Mycosphaerella fijiensis benzimidazole-sensitive isolate (Use Example 10); details: 125 ppm, control =100%, day 7
[6] = tested on: Septoria tritici; experiment: Microtiter test, Septoria blotch pathogen Septoria tritici (Use Example 3); details: 125 ppm; control =100%, day 7

Measured: relative growth of the pathogen

COc1cc(CNS(=O)(=O)c2ccc(Oc3ccccn3)cc2)ccn1 [Example 7]
at most 25%: all assays above

Cc1nccc(CNS(=O)(=O)c2ccc(Oc3ccccn3)cc2)c1C [Example 33]
at most 25%: [3] | [4] | [6]
